The record followed here is PubChem BioAssay AID330 (DTP/NCI, 2004).

The list shows only some results of the screen, not a fair sample: it gathers tests that were run many times, whatever their T/C, doses with no T/C, and many T/C values between a quarter and a half above the control. Other doses and runs of a compound stand elsewhere. T/C is the treated group as % of the vehicle group. Some entries give survivors of the animals treated and no T/C: the source files T/C as zero there, which appears to mark a toxic dose or a test without result, not a measured value. Some survivor counts are full or nearly so, which does not show that the dose was tolerated: the source hardly ever lists a survival T/C far under the control, and the zero likely stands for such cases as well. Survivors were counted at the toxicity check, usually on the fifth day, unless a day is given; later deaths do not show. Schedules are NCI's codes, read here as Q, the interval in days (D) or hours (H), X, the number of doses. Some entries were tested several times; their values stand side by side, smallest first. For survival time, the PubChem record calls one and a half times the control and up active, and a quarter to a half above the control has no call in these data; cut-offs in other NCI protocols can differ. Some T/C values carry the count of animals alive at the toxicity check (mostly the fifth day); where none is given, no animal had died by that day.

The subject of this experiment is P388 leukemia ip, CD2F1 mice, survival T/C. In words: NCI In Vivo Anticancer Drug Screen. Data for tumor model P388 Leukemia (intraperitoneal) in CD2F1 (CDF1) mice. To be noted: T/C endpoint: median survival time, higher T/C = longer survival.
The mark [1] stands for this setting: dose: 25.0 mg/kg/injection, schedule: Q01DX005 (ip), vehicle: saline.
Where [2] appears, read: dose: 200.0 mg/kg/injection, schedule: Q01DX009 (ip), vehicle: saline with Tween-80.
[3] abbreviates: dose: 200.0 mg/kg/injection, schedule: Q01DX009 (ip), vehicle: Klucel (hydroxypropylcellulose) (HPC).
Setting [4] is: dose: 200.0 mg/kg/injection, schedule: Q01DX005 (ip), vehicle: Klucel (hydroxypropylcellulose) (HPC).
Setting [5] is: dose: 100.0 mg/kg/injection, schedule: Q04DX002 (ip), vehicle: saline with Tween-80.
[6] abbreviates: dose: 200.0 mg/kg/injection, schedule: Q01DX005 (ip), vehicle: saline with Tween-80.

With `COc1cccc2c1C(=N)c1c(O)c3c(c(O)c1C2=O)C[C@@](O)(C(O)CO)C[C@@H]3OC1CC(N2CCOCC2)C(O)C(C)O1` (some centres not stated), the T/C by setting is: (dose: 6.25 mg/kg/injection, schedule: Q04DX003 (ip), vehicle: water) 126 % of control; (dose: 12.5 mg/kg/injection, schedule: Q04DX003 (ip), vehicle: water) 148 % of control; (dose: 25.0 mg/kg/injection, schedule: Q04DX003 (ip), vehicle: water) 127 % of control; (dose: 37.5 mg/kg/injection, schedule: Q04DX003 (ip), vehicle: water) 125 % of control; (dose: 75.0 mg/kg/injection, schedule: Q04DX003 (ip), vehicle: water) 131 % of control.

Consider `CC(=O)/C(=C\c1ccc([N+](=O)[O-])cc1)C(=O)CCN(C)C`, for which the T/C is 133 % of control (dose: 120.0 mg/kg/injection, schedule: Q01DX005 (ip), vehicle: saline, evaluated on day 20) and 136 % of control (dose: 120.0 mg/kg/injection, schedule: Q01DX005 (ip), vehicle: saline, evaluated on day 30). In addition, the survivor count (dose: 240.0 mg/kg/injection, schedule: Q01DX005 (ip), vehicle: saline) is on record as 0 of 6.

With `c1ccc(-c2c[s+]c(-c3ccccc3)s2)cc1`, the survivor count (dose: 200.0 mg/kg/injection, schedule: Q01DX009 (ip), vehicle: distilled water + Tween-80) is listed as 3 of 6.

On to `CCc1nc(N)nc(N)c1-c1ccc(N(C)C)c(N=[N+]=[N-])c1`, for which the survivor count is, setting by setting: (dose: 120.0 mg/kg/injection, schedule: Q01DX005 (ip), vehicle: Klucel (hydroxypropylcellulose) (HPC)) 0 of 6; (dose: 240.0 mg/kg/injection, schedule: Q01DX005 (ip), vehicle: Klucel (hydroxypropylcellulose) (HPC)) 0 of 6.

With `O=C1CC(c2ccc(Cl)cc2)C(c2ccc(Cl)cc2)C1C(=O)OC1CCCCC1` (configuration not stated), the survivor count is given as 6 of 6 (dose: 12.5 mg/kg/injection, schedule: Q01DX001 (ip), vehicle: Klucel (hydroxypropylcellulose) (HPC)); 6 of 6 (dose: 25.0 mg/kg/injection, schedule: Q01DX001 (ip), vehicle: Klucel (hydroxypropylcellulose) (HPC)); 6 of 6 (dose: 50.0 mg/kg/injection, schedule: Q01DX001 (ip), vehicle: Klucel (hydroxypropylcellulose) (HPC)); 5 of 6 (dose: 100.0 mg/kg/injection, schedule: Q01DX001 (ip), vehicle: Klucel (hydroxypropylcellulose) (HPC)); 6 of 6 (dose: 200.0 mg/kg/injection, schedule: Q01DX001 (ip), vehicle: Klucel (hydroxypropylcellulose) (HPC)).

For `COc1cc([C@@H]2c3cc4c(cc3[C@H](OC(=O)CCCC(=O)O)[C@H]3COC(=O)[C@H]23)OCO4)cc(OC)c1OC`, the T/C under setting [1] is 138 % of control. Further, the survivor count reads like this: under setting [1], 2 of 6; (dose: 50.0 mg/kg/injection, schedule: Q01DX005 (ip), vehicle: saline) 0 of 6 and 2 of 6; (dose: 100.0 mg/kg/injection, schedule: Q01DX005 (ip), vehicle: saline) 0 of 6; (dose: 200.0 mg/kg/injection, schedule: Q01DX005 (ip), vehicle: saline) 0 of 6.

Consider `COC(=O)C[C@](O)(CCC(C)(C)O)C(=O)O[C@@H]1C(OC)=C[C@]23CCCN2CCc2cc4c(cc2[C@H]13)OCO4`, for which, for the setting “dose: 2.0 mg/kg/injection, schedule: Q01DX009 (ip), vehicle: saline”, the T/C is 127 % of control. Besides, the survivor count (dose: 4.0 mg/kg/injection, schedule: Q01DX009 (ip), vehicle: saline) was 1 of 6.

For the compound `C[N+]1=C(/C=C/Nc2ccc3ccc4cccc5ccc2c3c45)C(C)(C)c2ccccc21`, the survivor count is 5 of 6 (dose: 100.0 mg/kg/injection, schedule: Q01DX009 (ip), vehicle: saline with Tween-80) and 0 of 6 under setting [2].

On to `Oc1c(C(Nc2cccc3cccnc23)c2ccccc2)ccc2cccnc12` (configuration not stated), for which the T/C was 126 [5 of 6 alive] and 130 % of control under setting [3]; 135 % of control (dose: 400.0 mg/kg/injection, schedule: Q01DX009 (ip), vehicle: Klucel (hydroxypropylcellulose) (HPC)).

Turning to `CC(=O)NC(=O)CCCCCCC(=O)NC(C)=O`, the survivor count by setting is: (dose: 100.0 mg/kg/injection, schedule: Q01DX005 (ip), vehicle: Klucel (hydroxypropylcellulose) (HPC)) 6 of 6; under setting [4], 6 of 6; (dose: 400.0 mg/kg/injection, schedule: Q01DX005 (ip), vehicle: Klucel (hydroxypropylcellulose) (HPC)) 5 of 6.

Consider `O=NN(CCCl)C(=O)OCc1ccccc1`, for which, for the setting “dose: 50.0 mg/kg/injection, schedule: Q01DX001 (ip), vehicle: saline with Tween-80”, the survivor count is listed as 6 of 6.

Regarding `CNC(=O)OCc1c2ccncc2c(C)c2c1[nH]c1ccccc12`, for the setting “dose: 12.5 mg/kg/injection, schedule: Q04DX002 (ip), vehicle: saline with Tween-80”, the T/C is 145 % of control. The survivor count (dose: 50.0 mg/kg/injection, schedule: Q04DX002 (ip), vehicle: saline with Tween-80) is 6 of 6 and the survivor count under setting [5] was 6 of 6.

With `COc1cccc2c1C(=O)c1c(O)c3c(c(O)c1C2=O)CC(O)(/C(C)=N/NC(=O)CCC(=O)N/N=C(\C)C1(O)Cc2c(O)c4c(c(O)c2C(OC2CC(N(C)C)C(O)C(C)O2)C1)C(=O)c1c(OC)cccc1C4=O)CC3OC1CC(N(C)C)C(O)C(C)O1` (configuration not stated), the T/C was 139 % of control (dose: 1.0 mg/kg/injection, schedule: Q01DX009 (ip), vehicle: water) and 143 % of control (dose: 2.0 mg/kg/injection, schedule: Q01DX009 (ip), vehicle: water). The survivor count reads like this: (dose: 16.0 mg/kg/injection, schedule: Q01DX009 (ip), vehicle: water) 6 of 6; (dose: 32.0 mg/kg/injection, schedule: Q01DX009 (ip), vehicle: water) 2 of 3 and 6 of 6.

With `O=c1c(F)cn(C(c2ccccc2)c2ccccc2)c(=O)n1C(c1ccccc1)c1ccccc1`, the survivor count (dose: 100.0 mg/kg/injection, schedule: Q01DX009 (ip), vehicle: suspension in saline) was 6 of 6.

In the case of `CCCCOC(OCCCC)C(C)N` (configuration not stated), the survivor count is, setting by setting: (dose: 100.0 mg/kg/injection, schedule: Q01DX005 (ip), vehicle: saline with Tween-80) 0 of 5; under setting [6], 0 of 5.

In the case of `CCc1ccc2nc3ccccc3c(NCCCCCCNc3c4ccccc4nc4ccc(CC)cc34)c2c1`, the survivor count (dose: 20.0 mg/kg/injection, schedule: Q01DX009 (ip), vehicle: other) was 1 of 6.

For `CCc1nc(N)nc(N)c1-c1ccc([N+](=O)[O-])cc1`, the survivor count under setting [6] is 0 of 6.

For `Cc1ccc(NC(=O)Oc2ccc(F)cc2Cl)c([N+](=O)[O-])c1`, the survivor count under setting [2] is 4 of 6.

In the case of `CCSC(=S)Nc1nc2ccc(C)cc2s1`, the survivor count is listed as 6 of 6 (dose: 50.0 mg/kg/injection, schedule: Q01DX009 (ip), vehicle: Klucel (hydroxypropylcellulose) (HPC)); 6 of 6 (dose: 100.0 mg/kg/injection, schedule: Q01DX009 (ip), vehicle: Klucel (hydroxypropylcellulose) (HPC)); 3 of 6 under setting [3].

On to `NC(N)=N/N=C1/C=C2C/C(=N\N=C(N)N)C=C2C1`, for which the survivor count under setting [4] is reported as 1 of 6.

As for `CCN(CC)CCOc1ccc(N(CCCl)CCCl)cc1`, under “dose: 6.25 mg/kg/injection, schedule: Q04DX003 (ip), vehicle: Klucel (hydroxypropylcellulose) (HPC)”, the T/C was 130 % of control. Further, the survivor count by setting is: (dose: 50.0 mg/kg/injection, schedule: Q04DX003 (ip), vehicle: Klucel (hydroxypropylcellulose) (HPC)) 6 of 6; (dose: 100.0 mg/kg/injection, schedule: Q04DX003 (ip), vehicle: Klucel (hydroxypropylcellulose) (HPC)) 0 of 6; (dose: 200.0 mg/kg/injection, schedule: Q04DX003 (ip), vehicle: Klucel (hydroxypropylcellulose) (HPC)) 0 of 6; (dose: 400.0 mg/kg/injection, schedule: Q04DX003 (ip), vehicle: Klucel (hydroxypropylcellulose) (HPC)) 0 of 6.

On to `CC(NCc1ccccc1)[Si](C)(C)C` (configuration not stated), for which, under setting [6], the survivor count was 0 of 6.

`CN1CCN(C)C1=Nc1ccccc1/C=C/C=C1C(=O)N(C)C(=O)N(C)C1=O`: the T/C under setting [5] is 125 % of control. Also, the survivor count was 0 of 6 (dose: 200.0 mg/kg/injection, schedule: Q04DX002 (ip), vehicle: saline with Tween-80) and 0 of 6 (dose: 400.0 mg/kg/injection, schedule: Q04DX002 (ip), vehicle: saline with Tween-80).
